# Results are given in words; binding and its absence hold for the method and conditions named. Some entries that bind do so weakly or less than the wild type.
# Chains of the proteins cited; added tags and fusions are not shown. Lines headed by an entry give the natural chain unless they say otherwise; changes in a name come on top.
# UniProt Q9UHF0: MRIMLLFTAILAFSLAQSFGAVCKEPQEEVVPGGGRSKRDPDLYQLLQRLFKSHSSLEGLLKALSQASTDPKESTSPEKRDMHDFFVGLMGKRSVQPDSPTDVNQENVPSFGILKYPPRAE
# UniProt P20366: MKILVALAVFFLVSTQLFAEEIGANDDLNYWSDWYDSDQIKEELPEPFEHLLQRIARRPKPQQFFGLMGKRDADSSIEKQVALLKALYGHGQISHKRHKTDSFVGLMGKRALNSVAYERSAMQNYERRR
# B1: neurokinin B (peptide, UniProt Q9UHF0 81-90)
# peptide: DMHDFFVGLM
# modifications: C-terminal amide
# B2: substance P (peptide, UniProt P20366 58-68)
# peptide: RPKPQQFFGLM
# modifications: C-terminal amide
# Assays:
# NK3R-L232mtfF (human) = target: T1, NK3R-L232mtfF (human) (UniProt P29371); assay: 1D 19F NMR; NK3R-L232mtfF purified in LMNG/GDN/CHS with 10 μM peptide (SP/NKB/senktide) present from cell lysis on; spectra at 298 K compared with the apo state; only the binder purified
# T1 sequence (chain, 3'-trifluoromethyl-phenylalanine (mtfF) at 232): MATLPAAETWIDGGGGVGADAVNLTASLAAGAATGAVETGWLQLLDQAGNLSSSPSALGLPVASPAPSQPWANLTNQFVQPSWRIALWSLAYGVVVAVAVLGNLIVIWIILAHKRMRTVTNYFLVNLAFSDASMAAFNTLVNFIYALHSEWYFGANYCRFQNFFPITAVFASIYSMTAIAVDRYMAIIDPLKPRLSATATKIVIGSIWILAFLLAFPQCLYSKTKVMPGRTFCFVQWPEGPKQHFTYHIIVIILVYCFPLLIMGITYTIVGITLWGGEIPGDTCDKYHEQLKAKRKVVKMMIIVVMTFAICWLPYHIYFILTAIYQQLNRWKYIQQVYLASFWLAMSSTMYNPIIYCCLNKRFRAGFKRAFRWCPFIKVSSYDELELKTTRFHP
# [1] = target: T2, Neurokinin 3 receptor, cryo-EM construct: BRIL-NK3R(1-394)-LgBiT (human) (UniProt P29371); assay: cryo-EM structure; NK3R–Gq/NKB complex, 2.8 Å; 10 μM peptide present from cell lysis on, 20 μg/mL purified Nb35 added to the membranes; complex purified on dextrin resin, TEV, Superdex 200 with 20 μM peptide in LMNG/GDN/CHS, HEPES pH 7.4, 100 mM NaCl; only the binder purified
# T2 sequence: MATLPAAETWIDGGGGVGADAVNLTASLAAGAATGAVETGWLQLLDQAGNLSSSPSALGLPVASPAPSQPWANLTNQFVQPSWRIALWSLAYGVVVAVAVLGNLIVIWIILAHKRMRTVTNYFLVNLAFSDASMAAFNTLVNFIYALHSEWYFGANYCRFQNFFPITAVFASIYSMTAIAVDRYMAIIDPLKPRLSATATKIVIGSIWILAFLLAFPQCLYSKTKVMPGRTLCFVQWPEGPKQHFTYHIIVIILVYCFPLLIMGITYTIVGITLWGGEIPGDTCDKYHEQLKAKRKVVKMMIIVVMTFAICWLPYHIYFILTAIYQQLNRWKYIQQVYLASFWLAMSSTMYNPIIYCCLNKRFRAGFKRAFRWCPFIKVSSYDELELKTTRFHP
# [2] = target: T2, Neurokinin 3 receptor, cryo-EM construct: BRIL-NK3R(1-394)-LgBiT (human); assay: cryo-EM structure; NK3R–Gq/SP complex, 2.9 Å; 10 μM peptide present from cell lysis on, 20 μg/mL purified Nb35 added to the membranes; complex purified on dextrin resin, TEV, Superdex 200 with 20 μM peptide in LMNG/GDN/CHS, HEPES pH 7.4, 100 mM NaCl; only the binder purified
binder,measurement,setting,value
B1,binding,NK3R-L232mtfF (human),binds
same,binding,[1],binds
B2,binding,[2],binds
same,binding,NK3R-L232mtfF (human),binds

# Reference: publication PMC10313662, “Structural insights into neurokinin 3 receptor activation by endogenous and analogue peptide agonists” (Cell Discovery, 2023)
